This is an account of results in publication PMC12370185.

Experiment in all cases: EMSA with sequencing
What all share (conditions): 10 mM Tris-Cl pH 7.5, 50 mM NaCl, 1 mM DTT, 0.25 mg/ml BSA, 2 mM MgCl2, 0.025% Nonidet P-40, 5% glycerol; 28 nM nucleosome library; 10 min on ice then 30 min …; high values mean tight binding; double strand, one strand shown

In test [1] the test system is KLF4 + histone octamer.
Test [2] relates to OCT4 + histone octamer.
In test [3] the test system is SOX2 + histone octamer.
Test [4] concerns c-MYC + MAX + histone octamer.

The list shows a part of the results.

Turning to “GATGGACCCTATACGCGGCTCTAGAAGAAACAGCCATTCAGGAAGAGCTTATGAAAGGGGTGGAGAATGCACTGCCTGTGTATGCTGCAAGACCTTTCTGCAGACATTGTGTCTTTGTGAGCTGACTGCAGAGGCCATGTGCATGTGAAATGTATGAGAATGTATGTGTTGCTTATTTCAGATCATGTATGAACCTGTATGAATTGCTGATGCCAGTCGGATAGTGTTCC”, the binding signal (log2 relative supershift) came to 0.642 in test [1], 0.349 in test [2], 0.9 in test [3] and 0.0374 in test [4].

As to “GATGGACCCTATACGCGGCCTTGGTAATCTTGAACCAGATGTCAGTCATGAATTTAATCCTCTTGGGAGGATTCTGCAATGCAGAATGCAATGCAATGCAATGCAGATGCAATGCAATGCAGAACAAGGCTGAGCTAGGAAACGTATTCAAGGTTTGCATTTAAGCTTTGTTATGCAGGACCAACACAGCCTTTATTCTGGGGCCAGTTTTGCCAGTCGGATAGTGTTCC”, the binding signal (log2 relative supershift) in test [1] turned out to be 0.369; in test [2], 0.544; in test [3], 1.76; in test [4] it was 0.187.

For the sequence “GATGGACCCTATACGCGGCTGTCTTTTTGAACCCACCTTCCATTGGAGGCAAAATTAAACAGTCTGTGCACAGTCATAGGGACATGACATGCATGTGAAAGCGGCAAAGAGAGGGCAACATACTAACTAGCTCAGACCCAGAAATGGGTGCCCTTTGAAATGAGGCACTTCTGGGAGCTCCTACTGCATTTGAAGAAGAGGAGAAATCAATGCCAGTCGGATAGTGTTCC”, the binding signal (log2 relative supershift) in test [1] was 2.01; in test [2], 0.412; in test [3], 0.87; in test [4] it was 0.0437.

On to “GATGGACCCTATACGCGGCCTATTTGGGGCCTATTGCTATAGCAGCTACTGTTTAGCTTCCTGGATCATCACTACAGATAGCAATCTGGCTTCCTGCAGGTCTGACTTACAGCAGGATGGCTTCTTGTGTTGCTCATTGCAGATAAGGAGCTGGTTTCCTGGGCAGGTTTCTACAAGTTGTGGATCAAAGTTCTATTTTTATATATGGTCTGCCAGTCGGATAGTGTTCC”, for which the binding signal (log2 relative supershift) in test [1] amounted to 0.911; in test [2], 0.0393; in test [3] it was 0.534; in test [4], 0.00767.
